No constants are given. Whether binding was seen depends on the method and setting. In cells and extracts the contact can be indirect. Some entries that bind do so weakly or less than the wild type.

By UniProt entry, the sequences of proteins in these tests, tags left out. Residues count along the entry.
UniProt Q13009, residues 2-1591: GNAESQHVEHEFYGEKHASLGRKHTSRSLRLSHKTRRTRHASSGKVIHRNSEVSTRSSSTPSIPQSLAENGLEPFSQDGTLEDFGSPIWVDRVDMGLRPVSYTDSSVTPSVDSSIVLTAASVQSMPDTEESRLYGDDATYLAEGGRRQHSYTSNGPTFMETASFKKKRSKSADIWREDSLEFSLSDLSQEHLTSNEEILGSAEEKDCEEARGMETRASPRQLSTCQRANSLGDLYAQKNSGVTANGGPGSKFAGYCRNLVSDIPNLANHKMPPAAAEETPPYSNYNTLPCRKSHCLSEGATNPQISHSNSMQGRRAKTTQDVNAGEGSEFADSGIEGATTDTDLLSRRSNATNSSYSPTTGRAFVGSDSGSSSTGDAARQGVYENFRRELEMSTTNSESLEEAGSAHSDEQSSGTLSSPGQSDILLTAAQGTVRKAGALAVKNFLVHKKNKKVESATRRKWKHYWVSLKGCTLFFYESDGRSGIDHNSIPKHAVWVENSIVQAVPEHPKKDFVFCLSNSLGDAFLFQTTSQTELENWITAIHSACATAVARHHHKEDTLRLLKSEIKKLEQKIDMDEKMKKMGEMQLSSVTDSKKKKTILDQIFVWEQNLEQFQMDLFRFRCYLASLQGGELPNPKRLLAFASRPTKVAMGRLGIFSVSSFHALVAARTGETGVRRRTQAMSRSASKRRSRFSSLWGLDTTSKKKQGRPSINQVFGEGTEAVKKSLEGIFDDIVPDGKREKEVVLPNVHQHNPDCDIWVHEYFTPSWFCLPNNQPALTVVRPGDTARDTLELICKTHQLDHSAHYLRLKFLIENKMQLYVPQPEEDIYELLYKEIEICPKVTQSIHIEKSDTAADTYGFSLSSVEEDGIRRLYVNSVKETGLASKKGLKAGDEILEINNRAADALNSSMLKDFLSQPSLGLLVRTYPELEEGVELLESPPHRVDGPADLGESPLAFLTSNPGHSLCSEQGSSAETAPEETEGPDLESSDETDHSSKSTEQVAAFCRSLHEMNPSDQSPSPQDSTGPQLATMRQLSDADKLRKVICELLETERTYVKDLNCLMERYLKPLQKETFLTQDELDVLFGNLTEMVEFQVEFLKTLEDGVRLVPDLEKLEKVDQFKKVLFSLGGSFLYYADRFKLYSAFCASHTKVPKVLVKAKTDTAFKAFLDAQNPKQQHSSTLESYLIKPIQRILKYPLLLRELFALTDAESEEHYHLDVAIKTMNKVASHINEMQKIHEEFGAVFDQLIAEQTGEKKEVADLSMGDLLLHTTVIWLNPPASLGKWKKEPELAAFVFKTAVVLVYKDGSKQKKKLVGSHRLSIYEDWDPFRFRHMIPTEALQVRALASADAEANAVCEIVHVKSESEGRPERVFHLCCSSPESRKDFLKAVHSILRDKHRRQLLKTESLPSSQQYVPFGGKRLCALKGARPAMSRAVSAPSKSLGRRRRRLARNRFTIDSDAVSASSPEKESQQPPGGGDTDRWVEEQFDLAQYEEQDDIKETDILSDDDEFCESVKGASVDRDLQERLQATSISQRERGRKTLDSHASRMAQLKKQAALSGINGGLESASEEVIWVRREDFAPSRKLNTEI

Among the data in patent publication US20070066522A1 are binding values, retold here.

This assay has as its target HRas in H-Ras^V12 oncogene-transformed cells (PH3MT) (UniProt P01112). As to the kind of experiment: co-immunoprecipitation with anti-HRas from PH3MT-SC and PH3MT-2A3 lysates, Western blot. (A western blot detects proteins with antibodies after separation by electrophoresis.)

As for “Tiam1 (endogenous, in PH3MT cell lysates) (from UniProt Q13009 2-1591)”, the binding entry is given as “binds”.
